# Only a part is listed here, and it is no random draw. Records with an inconclusive call do not appear. Some compounds were tested as several samples or in several runs, with calls that do not always agree. Activity calls are given as the source filed them. Calls follow the shape of the full dose curve.
# Assay: p53 small molecule agonists, cell-based qHTS assay with human liver microsomes: qHTS cell viability counter screen (AID 1963579); also: nearly all actives have a fitted effect of over 45% in size
# Conditions: p53RE-bla HCT-116 viability, ATP luminescence, 16 h, HLM
# Summary of the method: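 Cytotoxicity counter screen: p53RE-bla, 4,000 cells/well; 5 h settle, 37 C/5% CO2; cpd + HLM 0.5 mg/mL + NADPH 0.5 mg/mL (final); 16 h, 37 C; CellTiter-Glo, 30 min RT, luminescence.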
# Potency is read from the fitted curve at half-maximal effect.
smiles,measurement,value
CCCCCCCCCC(CC)c1ccc(S(=O)(=O)O)cc1 (stereo unspecified),Potency,active: 45.8 µM
